Results reported in patent US20070054916A1, “Aryl nitrogen-containing bicyclic compounds and methods of use” (Amgen Inc., priority 2004, published 2007).
Some entries share one result that the patent states for a list of compounds.

Sequences of proteins named here, by UniProt entry; tags and fusion partners are left off. Residues count along the entry.
UniProt Q02763, 23-1124: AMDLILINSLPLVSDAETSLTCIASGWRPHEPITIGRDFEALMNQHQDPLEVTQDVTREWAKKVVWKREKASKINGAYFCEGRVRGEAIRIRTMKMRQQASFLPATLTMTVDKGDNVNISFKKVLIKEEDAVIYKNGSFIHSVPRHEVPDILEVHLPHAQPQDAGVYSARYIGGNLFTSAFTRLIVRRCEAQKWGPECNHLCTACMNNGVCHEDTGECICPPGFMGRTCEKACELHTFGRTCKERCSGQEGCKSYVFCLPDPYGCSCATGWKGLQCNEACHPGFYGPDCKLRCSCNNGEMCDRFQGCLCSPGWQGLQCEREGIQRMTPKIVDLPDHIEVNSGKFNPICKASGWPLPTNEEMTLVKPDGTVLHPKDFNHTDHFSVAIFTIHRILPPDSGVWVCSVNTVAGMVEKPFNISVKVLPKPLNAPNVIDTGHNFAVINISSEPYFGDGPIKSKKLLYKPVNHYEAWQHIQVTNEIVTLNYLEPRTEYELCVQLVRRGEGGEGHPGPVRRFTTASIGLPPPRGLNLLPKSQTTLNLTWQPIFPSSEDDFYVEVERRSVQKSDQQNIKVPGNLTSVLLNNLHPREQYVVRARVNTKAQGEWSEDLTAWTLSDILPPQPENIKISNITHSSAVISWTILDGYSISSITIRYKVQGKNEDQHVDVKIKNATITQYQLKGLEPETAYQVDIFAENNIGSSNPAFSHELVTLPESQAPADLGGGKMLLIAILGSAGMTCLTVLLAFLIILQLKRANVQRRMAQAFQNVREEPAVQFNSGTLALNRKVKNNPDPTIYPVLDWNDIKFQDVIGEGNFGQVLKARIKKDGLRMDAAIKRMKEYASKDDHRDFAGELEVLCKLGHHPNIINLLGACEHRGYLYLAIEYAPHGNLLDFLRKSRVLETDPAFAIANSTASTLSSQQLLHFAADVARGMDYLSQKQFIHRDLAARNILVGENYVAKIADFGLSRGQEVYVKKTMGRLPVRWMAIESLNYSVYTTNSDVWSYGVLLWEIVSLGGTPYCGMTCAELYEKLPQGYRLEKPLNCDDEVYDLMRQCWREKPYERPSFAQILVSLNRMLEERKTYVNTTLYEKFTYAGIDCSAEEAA

Biological target: Tie-2 kinase enzyme (Homo sapiens, UniProt Q02763)
Experiment: Tie-2 Homogenous Time Resolved Flourescent (HTRF) kinase assay
Format: biochemical
Details: read-out: IC50's for the inhibition of Tie-2 as measured by the HTRF assay

IC50 [nM] | Compound
≤ 1000 | Nc1ncc2cc(-c3cc(NC(=O)c4cccc(C(F)(F)F)c4F)ccc3F)ccc2n1 [Example 479, N-(3-(2-amino-6-quinazolinyl)-4-fluorophenyl)-2-fluoro-3-(trifluoromethyl)benzamide]
≤ 1000 | CC(C)c1cccc(C(=O)Nc2cc(-c3ccc4nc(N)ncc4c3)cc(C(F)(F)F)c2)c1 [Example 512, N-(3-(2-amino-6-quinazolinyl)-5-(trifluoromethyl)phenyl)-3-(1-methylethyl)benzamide]
≤ 1000 | Nc1ncnc2ccc(-c3cccc(NC(=O)c4cccc(C(F)(F)F)c4)c3)cc12 [Example 513, N-(3-(4-amino-6-quinazolinyl)phenyl)-3-(trifluoromethyl)benzamide]
≤ 1000 | Nc1ncc2cc(-c3ccc(NC(=O)Nc4cc(F)cc(C(F)(F)F)c4)cc3)ccc2n1 [Example 521, N-(4-(2-amino-6-quinazolinyl)phenyl)-N′-(3-fluoro-5-(trifluoromethyl)phenyl)urea]
≤ 1000 | Nc1ncc2cc(-c3ccc(NC(=O)Nc4cccc(F)c4)cc3)ccc2n1 [Example 522, N-(4-(2-amino-6-quinazolinyl)phenyl)-N′-(3-fluorophenyl)urea]
≤ 1000 | Cc1ccc(NC(=S)Nc2cccc(C(F)(F)F)c2)cc1-c1ccc2nc(N)ncc2c1 [Example 528, N-(3-(2-amino-6-quinazolinyl)-4-methylphenyl)-N′-(3-(trifluoromethyl)phenyl)thiourea]
≤ 1000 | CNc1ncc2cc(-c3cc(NC(=O)Nc4cccc(C(F)(F)F)c4)ccc3C)ccc2n1 [Example 530, N-(4-methyl-3-(2-(methylamino)-6-quinazolinyl)phenyl)-N′-(3-(trifluoromethyl)phenyl)urea]
≤ 1000 | Nc1ncc2cc(-c3cc(NC(=O)Nc4cccc(C(F)(F)F)c4)ccc3C(F)(F)F)ccc2n1 [Example 531, N-(3-(2-amino-6-quinazolinyl)-4-(trifluoromethyl)phenyl)-N′-(3-(trifluoromethyl)phenyl)urea]
≤ 1000 | CCNC(=O)Nc1ncc2cc(-c3cc(C(=O)Nc4cccc(C(F)(F)F)c4)ccc3C)ccc2n1 [Example 539, 3-(2-(((ethylamino)carbonyl)amino)-6-quinazolinyl)-4-methyl-N-(3-(trifluoromethyl)phenyl)benzamide]

More lines, now with the values behind:

Compound | IC50 [nM]
Nc1ncc2cc(-c3cc(NC(=O)c4cccc(C(F)(F)F)c4F)ccc3Cl)ccc2n1 [Example 481, N-(3-(2-amino-6-quinazolinyl)-4-chlorophenyl)-2-fluoro-3-(trifluoromethyl)benzamide] | ≤ 1000
Cc1ccc(NC(=O)c2cccc(C(C)C)c2)cc1-c1ccc2nc(N)ncc2c1 [Example 484, N-(3-(2-amino-6-quinazolinyl)-4-methylphenyl)-3-(1-methylethyl)benzamide] | ≤ 1000
Nc1ncc2cc(-c3ccc(F)c(NC(=O)c4cc(F)cc(C(F)(F)F)c4)c3)ccc2n1 [Example 489, N-(5-(2-amino-6-quinazolinyl)-2-fluorophenyl)-3-fluoro-5-(trifluoromethyl)benzamide] | ≤ 1000
COc1cc(OC)cc(C(=O)Nc2cc(-c3ccc4nc(N)ncc4c3)ccc2F)c1 [Example 490, N-(5-(2-amino-6-quinazolinyl)-2-fluorophenyl)-3,5-bis(methyloxy)benzamide] | ≤ 1000
CC(C)c1cccc(C(=O)Nc2cc(-c3ccc4nc(N)ncc4c3)ccc2F)c1 [Example 491, N-(5-(2-amino-6-quinazolinyl)-2-fluorophenyl)-3-(1-methylethyl)benzamide] | ≤ 1000
CN(C)CCCN(C)c1ccc(C(F)(F)F)cc1C(=O)Nc1cc(-c2ccc3nc(N)ncc3c2)ccc1F [Example 494, N-(5-(2-amino-6-quinazolinyl)-2-fluorophenyl)-2-((3-(dimethylamino)propyl)(methyl)amino)-5-(trifluoromethyl)benzamide] | ≤ 1000
CN(C)[C@@H]1CCN(c2ccc(C(F)(F)F)cc2C(=O)Nc2cc(-c3ccc4nc(N)ncc4c3)ccc2F)C1 [Example 495, N-(5-(2-amino-6-quinazolinyl)-2-fluorophenyl)-2-((3R)-3-(dimethylamino)-1-pyrrolidinyl)-5-(trifluoromethyl)benzamide] | ≤ 1000
COc1ccc(C(=O)Nc2cc(Cl)c(C)c(-c3ccc4nc(N)ncc4c3)c2)cc1C(F)(F)F [Example 503, N-(3-(2-amino-6-quinazolinyl)-5-chloro-4-methylphenyl)-4-(methyloxy)-3-(trifluoromethyl)benzamide] | ≤ 1000
Cc1cc(NC(=O)Nc2cc(F)cc(C(F)(F)F)c2)ccc1-c1ccc2nc(N)ncc2c1 [Example 519, N-(4-(2-amino-6-quinazolinyl)-3-methylphenyl)-N′-(3-fluoro-5-(trifluoromethyl)phenyl)urea] | ≤ 1000
COc1ccc(Cl)cc1NC(=O)Nc1ccc(-c2ccc3nc(N)ncc3c2)c(C)c1 [Example 520, N-(4-(2-amino-6-quinazolinyl)-3-methylphenyl)-N′-(5-chloro-2-(methyloxy)phenyl)urea] | ≤ 1000
Cc1ccc(NC(=O)Nc2ccccc2)cc1-c1ccc2nc(N)ncc2c1 [Example 525, N-(3-(2-amino-6-quinazolinyl)-4-methylphenyl)-N′-phenylurea] | ≤ 1000
Cc1ccc(NC(=S)Nc2ccccc2)cc1-c1ccc2nc(N)ncc2c1 [Example 529, N-(3-(2-amino-6-quinazolinyl)-4-methylphenyl)-N′-phenylthiourea] | ≤ 1000
Cc1cccc(C)c1-c1ccc2nc(NCCN3CCOCC3)ncc2c1 [Example 534, 6-(2,6-dimethylphenyl)-N-(2-morpholinoethyl)quinazolin-2-amine] | ≤ 1000
Cc1cccc(C)c1-c1ccc2nc(Nc3ccc(N4CCN(C)CC4)cc3)ncc2c1 [Example 537, 6-(2,6-dimethylphenyl)-N-(4-(4-methyl-1-piperazinyl)phenyl)-2-quinazolinamine] | ≤ 1000
Cc1cccc(C)c1-c1ccc2nc(Nc3ccc(OCCCN4CCCCC4)cc3)ncc2c1 [Example 538, 6-(2,6-dimethylphenyl)-N-(4-((3-(1-piperidinyl)propyl)oxy)phenyl)-2-quinazolinamine] | ≤ 1000
Cc1ccc(NC(=O)Nc2ccc(C)c(-c3ccc4nc(N)ncc4c3)c2)cc1-c1ccc2nc(N)ncc2c1 [Example 541, 1,3-bis(3-(2-aminoquinazolin-6-yl)-4-methylphenyl)urea] | ≤ 1000
